Values from PubChem BioAssay AID1224830 (NIAID, 2016).
Assay: 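Host factors that control LPS-induced TNF expression in human macrophages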 (primary screen). Cells: human THP-1 monocytic leukaemia cells, TNF dual-luciferase reporter clone, PMA-differentiated to macrophage-like cells. Reagent: siRNA pool against human genes, 50 nM. Timing: LPS for 4 h, given about 3 days after siRNA transfection. Treatment: bacterial LPS (TLR4 ligand), 10 ng/ml. Measured: 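Ratio of firefly to renilla light, scaled to the plate median and expressed as a robust z-score per replicate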. Direction: TNF reporter robust z-score: higher = stronger TNF reporter response to LPS. Rule for the call: 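a well is active when its z-score exceeds 2.8 or falls below -1.5; control wells carry no call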.
Here is an unselected part of about 18,000 reagents. Of all reagents, about 2,900 (16%) got an active call. 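Calls are made per well; low scores hint the gene aids the LPS response, high scores that it dampens it.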 Unmarked entries are inactive. Repeated entries: four replicate wells of each siRNA pool.

no.	target	TNF reporter robust z-score
1	SUPT20H	1.54
2	SUPT20H	2.97 (active)
3	SUPT20H	0.58
4	SUPT20H	1.3
5	SLC33A1	1.7
6	SLC33A1	1.47
7	SLC33A1	2.78
8	SLC33A1	2.58
9	RND3	-1.22
10	RND3	-1.26
11	RND3	-1.21
12	RND3	-0.86
13	NDUFS4	-1.11
14	NDUFS4	-0.94
15	NDUFS4	-1.58 (active)
16	NDUFS4	-1.64 (active)
17	FBXW5	3.12 (active)
18	FBXW5	-0.59
19	FBXW5	-0.84
20	FBXW5	0.1
21	MYCT1	-1.44
22	MYCT1	-1.29
23	MYCT1	-1.22
24	MYCT1	-1.3
25	GKN1	-0.65
26	GKN1	-0.32
27	GKN1	-1.03
28	GKN1	-0.63
29	SERP2	0.22
30	SERP2	-0.04
31	SERP2	0.13
32	SERP2	1.38
33	IFNA6	0.2
34	IFNA6	1.27
35	IFNA6	3.72 (active)
36	IFNA6	0.77
37	MTSS1	0.38
38	MTSS1	-0.15
39	MTSS1	-0.08
40	PPFIBP2	-0.54
41	PPFIBP2	0.45
42	PPFIBP2	1.08
43	PPFIBP2	0.8
44	EBI3	-1.1
45	EBI3	-1.72 (active)
46	EBI3	-0.87
47	EBI3	-1.08
48	RMND5B	0.38
49	RMND5B	-0.59
50	RMND5B	-0.55
51	RMND5B	-0.46
52	ZNF296	1.85
53	ZNF296	2.24
54	ZNF296	0.58
55	ZNF296	0.86
56	TRIR	-0.94
57	TRIR	-0.61
58	TRIR	-0.19
59	TRIR	0.1
60	STK32C	0.47
61	STK32C	2.08
62	STK32C	1.58
63	STK32C	1.57
64	CT45A1	1.2
65	CT45A1	0.98
66	CT45A1	1.02
67	CT45A1	0.87
68	FLG2	0.04
69	FLG2	0.13
70	FLG2	0.79
71	FLG2	-0.41
72	ADM2	1.19
73	ADM2	-0.32
74	ADM2	0.31
75	ADM2	0.92
76	GFER	0.41
77	GFER	2.03
78	GFER	3.66 (active)
79	GFER	-0.05
80	DDX24	1.14
81	DDX24	1.95
82	DDX24	0.98
83	DDX24	1.92
84	SLC45A3	1.12
85	SLC45A3	2.03
86	SLC45A3	1.7
87	SLC45A3	1.17
88	FRAT2	2.12
89	FRAT2	1.88
90	FRAT2	2.29
91	FRAT2	3.23 (active)
92	HELZ2	-0.51
93	HELZ2	0.13
94	HELZ2	-0.22
95	HELZ2	-0.35
96	ASTE1	1.36
97	ASTE1	0.88
98	ASTE1	-0.87
99	ASTE1	-0.66
100	ZDHHC7	-0.41
101	ZDHHC7	-0.08
102	ZDHHC7	-0.03
103	ZDHHC7	0.09
104	ESYT2	-0.67
105	ESYT2	-1.24
106	ESYT2	-1.08
107	ESYT2	0.11
108	TBC1D19	2.1
109	TBC1D19	2.2
110	TBC1D19	1.06
111	TBC1D19	0.68

Called active, among the entries above:
target	TNF reporter robust z-score
SUPT20H	2.97 (active)
NDUFS4	-1.58 (active)
NDUFS4	-1.64 (active)
FBXW5	3.12 (active)
IFNA6	3.72 (active)
EBI3	-1.72 (active)
GFER	3.66 (active)
FRAT2	3.23 (active)
